# Laboratory results taken from patent publication US20070224273A1, “Multifunctional Supramolecular Hydrogels as Biomaterials” (priority 2004, published 2007).
# At least one compound was matched to its structure with a doubt left.
# Experiment: Solution of precursor 3, sample G (only water, no enzyme)
# Format: biochemical
# Details: precursor 3 0.35 wt %
# Experimental: To evaluate whether precursor 3 would respond to β-lactamases in bacteria, solution of precursor 3 was treated with sonicated lysates of E. coli.
compound,measurement,value
NCC(=O)N[C@@H]1C(=O)N2C(C(=O)O)=C(CSCCNC(=O)[C@H](Cc3ccccc3)NC(=O)[C@H](Cc3ccccc3)NC(=O)Cc3ccc4ccccc4c3)CS[C@H]12 [Precursor 3],Gelation,−
